# Results published in PMC5035054.
# By UniProt entry, the sequences of proteins in these tests, tags left out.
# UniProt P08579: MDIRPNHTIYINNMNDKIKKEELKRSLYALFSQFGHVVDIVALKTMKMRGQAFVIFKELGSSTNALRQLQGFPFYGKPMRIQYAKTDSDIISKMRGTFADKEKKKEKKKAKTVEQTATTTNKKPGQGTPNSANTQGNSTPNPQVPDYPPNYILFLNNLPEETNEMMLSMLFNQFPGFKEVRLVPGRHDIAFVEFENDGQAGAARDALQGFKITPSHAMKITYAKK
# UniProt Q9UPY3: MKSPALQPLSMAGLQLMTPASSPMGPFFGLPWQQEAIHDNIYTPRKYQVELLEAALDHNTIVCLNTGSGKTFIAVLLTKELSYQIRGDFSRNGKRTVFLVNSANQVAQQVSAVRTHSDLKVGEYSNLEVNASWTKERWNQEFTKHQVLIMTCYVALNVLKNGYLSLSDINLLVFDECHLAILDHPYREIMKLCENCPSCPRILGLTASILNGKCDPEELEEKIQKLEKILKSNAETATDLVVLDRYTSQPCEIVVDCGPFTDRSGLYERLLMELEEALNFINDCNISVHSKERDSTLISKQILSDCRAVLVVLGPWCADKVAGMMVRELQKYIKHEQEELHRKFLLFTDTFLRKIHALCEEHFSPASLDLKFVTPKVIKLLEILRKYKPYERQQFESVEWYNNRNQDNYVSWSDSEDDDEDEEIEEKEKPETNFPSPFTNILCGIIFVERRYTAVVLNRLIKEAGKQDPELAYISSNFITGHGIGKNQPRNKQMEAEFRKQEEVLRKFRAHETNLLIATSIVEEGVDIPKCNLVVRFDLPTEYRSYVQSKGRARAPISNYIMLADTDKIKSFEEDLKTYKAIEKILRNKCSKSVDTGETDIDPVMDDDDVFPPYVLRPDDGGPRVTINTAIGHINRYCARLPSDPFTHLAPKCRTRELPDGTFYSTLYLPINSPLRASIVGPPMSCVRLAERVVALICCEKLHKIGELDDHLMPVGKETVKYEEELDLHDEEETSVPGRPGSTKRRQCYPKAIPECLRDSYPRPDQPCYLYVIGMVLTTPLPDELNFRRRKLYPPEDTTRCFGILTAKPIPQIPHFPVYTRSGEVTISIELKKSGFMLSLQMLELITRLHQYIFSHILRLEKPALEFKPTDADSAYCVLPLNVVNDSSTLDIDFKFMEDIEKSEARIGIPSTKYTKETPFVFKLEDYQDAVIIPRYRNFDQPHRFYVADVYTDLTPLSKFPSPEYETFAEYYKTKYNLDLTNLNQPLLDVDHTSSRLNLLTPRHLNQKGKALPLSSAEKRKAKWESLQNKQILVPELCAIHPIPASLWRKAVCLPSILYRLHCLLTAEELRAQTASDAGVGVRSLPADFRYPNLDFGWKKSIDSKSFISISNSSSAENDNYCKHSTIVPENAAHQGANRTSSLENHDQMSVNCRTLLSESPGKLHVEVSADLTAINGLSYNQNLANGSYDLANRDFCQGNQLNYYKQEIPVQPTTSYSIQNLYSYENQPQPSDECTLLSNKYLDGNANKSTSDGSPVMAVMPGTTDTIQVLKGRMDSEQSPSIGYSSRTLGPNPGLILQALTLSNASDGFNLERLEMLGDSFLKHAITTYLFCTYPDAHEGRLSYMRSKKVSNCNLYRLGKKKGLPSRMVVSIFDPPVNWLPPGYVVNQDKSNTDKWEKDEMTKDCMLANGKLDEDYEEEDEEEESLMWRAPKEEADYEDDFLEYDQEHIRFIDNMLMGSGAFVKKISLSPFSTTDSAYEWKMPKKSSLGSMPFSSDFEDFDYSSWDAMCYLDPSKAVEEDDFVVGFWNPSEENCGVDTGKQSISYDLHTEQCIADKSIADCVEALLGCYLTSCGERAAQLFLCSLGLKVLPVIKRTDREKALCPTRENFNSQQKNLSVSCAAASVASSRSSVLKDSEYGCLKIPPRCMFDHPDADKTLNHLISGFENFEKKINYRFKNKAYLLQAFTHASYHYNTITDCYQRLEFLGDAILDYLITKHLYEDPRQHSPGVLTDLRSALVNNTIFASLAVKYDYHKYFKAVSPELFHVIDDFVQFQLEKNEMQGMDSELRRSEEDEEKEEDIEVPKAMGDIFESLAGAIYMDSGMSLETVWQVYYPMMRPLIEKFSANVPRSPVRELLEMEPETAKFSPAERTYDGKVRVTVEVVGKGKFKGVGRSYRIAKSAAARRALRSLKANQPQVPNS
# UniProt Q969G3: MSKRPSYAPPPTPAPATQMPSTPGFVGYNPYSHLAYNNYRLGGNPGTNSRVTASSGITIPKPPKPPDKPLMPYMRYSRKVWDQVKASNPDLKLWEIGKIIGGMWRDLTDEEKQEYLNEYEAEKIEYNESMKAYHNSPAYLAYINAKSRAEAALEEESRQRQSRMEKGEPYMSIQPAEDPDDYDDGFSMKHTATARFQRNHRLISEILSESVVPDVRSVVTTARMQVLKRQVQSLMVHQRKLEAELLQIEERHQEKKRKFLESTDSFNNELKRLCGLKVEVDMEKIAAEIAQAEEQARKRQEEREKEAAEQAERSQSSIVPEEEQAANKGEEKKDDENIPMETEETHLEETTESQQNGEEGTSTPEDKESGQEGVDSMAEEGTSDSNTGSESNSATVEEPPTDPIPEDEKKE
# UniProt Q9NPF5: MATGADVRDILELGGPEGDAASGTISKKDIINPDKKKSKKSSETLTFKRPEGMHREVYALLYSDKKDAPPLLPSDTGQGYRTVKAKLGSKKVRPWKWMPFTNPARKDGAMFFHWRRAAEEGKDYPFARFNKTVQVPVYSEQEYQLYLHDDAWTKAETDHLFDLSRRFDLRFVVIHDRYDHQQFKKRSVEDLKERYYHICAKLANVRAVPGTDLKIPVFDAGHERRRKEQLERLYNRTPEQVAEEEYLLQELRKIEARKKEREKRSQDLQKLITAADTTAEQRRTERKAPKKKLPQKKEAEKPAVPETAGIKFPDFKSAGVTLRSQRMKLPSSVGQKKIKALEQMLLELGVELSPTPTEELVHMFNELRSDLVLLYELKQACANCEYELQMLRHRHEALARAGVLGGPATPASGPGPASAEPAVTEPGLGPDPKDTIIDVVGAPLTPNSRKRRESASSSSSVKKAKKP
# UniProt Q5SSJ5: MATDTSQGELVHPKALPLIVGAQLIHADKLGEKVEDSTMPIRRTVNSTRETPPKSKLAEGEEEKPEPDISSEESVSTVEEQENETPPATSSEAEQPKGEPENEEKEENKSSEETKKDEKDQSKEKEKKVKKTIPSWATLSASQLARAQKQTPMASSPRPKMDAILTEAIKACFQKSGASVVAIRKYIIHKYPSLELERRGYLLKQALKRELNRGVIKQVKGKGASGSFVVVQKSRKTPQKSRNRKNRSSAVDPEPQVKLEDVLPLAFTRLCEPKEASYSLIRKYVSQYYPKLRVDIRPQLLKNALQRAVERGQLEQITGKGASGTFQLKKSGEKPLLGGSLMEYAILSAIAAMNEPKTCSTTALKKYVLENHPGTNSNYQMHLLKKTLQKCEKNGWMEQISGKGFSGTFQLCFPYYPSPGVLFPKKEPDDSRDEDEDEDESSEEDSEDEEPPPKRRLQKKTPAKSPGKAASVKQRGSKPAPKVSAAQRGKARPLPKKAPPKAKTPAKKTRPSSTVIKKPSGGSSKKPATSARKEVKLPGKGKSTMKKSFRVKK
# UniProt Q9P2D1: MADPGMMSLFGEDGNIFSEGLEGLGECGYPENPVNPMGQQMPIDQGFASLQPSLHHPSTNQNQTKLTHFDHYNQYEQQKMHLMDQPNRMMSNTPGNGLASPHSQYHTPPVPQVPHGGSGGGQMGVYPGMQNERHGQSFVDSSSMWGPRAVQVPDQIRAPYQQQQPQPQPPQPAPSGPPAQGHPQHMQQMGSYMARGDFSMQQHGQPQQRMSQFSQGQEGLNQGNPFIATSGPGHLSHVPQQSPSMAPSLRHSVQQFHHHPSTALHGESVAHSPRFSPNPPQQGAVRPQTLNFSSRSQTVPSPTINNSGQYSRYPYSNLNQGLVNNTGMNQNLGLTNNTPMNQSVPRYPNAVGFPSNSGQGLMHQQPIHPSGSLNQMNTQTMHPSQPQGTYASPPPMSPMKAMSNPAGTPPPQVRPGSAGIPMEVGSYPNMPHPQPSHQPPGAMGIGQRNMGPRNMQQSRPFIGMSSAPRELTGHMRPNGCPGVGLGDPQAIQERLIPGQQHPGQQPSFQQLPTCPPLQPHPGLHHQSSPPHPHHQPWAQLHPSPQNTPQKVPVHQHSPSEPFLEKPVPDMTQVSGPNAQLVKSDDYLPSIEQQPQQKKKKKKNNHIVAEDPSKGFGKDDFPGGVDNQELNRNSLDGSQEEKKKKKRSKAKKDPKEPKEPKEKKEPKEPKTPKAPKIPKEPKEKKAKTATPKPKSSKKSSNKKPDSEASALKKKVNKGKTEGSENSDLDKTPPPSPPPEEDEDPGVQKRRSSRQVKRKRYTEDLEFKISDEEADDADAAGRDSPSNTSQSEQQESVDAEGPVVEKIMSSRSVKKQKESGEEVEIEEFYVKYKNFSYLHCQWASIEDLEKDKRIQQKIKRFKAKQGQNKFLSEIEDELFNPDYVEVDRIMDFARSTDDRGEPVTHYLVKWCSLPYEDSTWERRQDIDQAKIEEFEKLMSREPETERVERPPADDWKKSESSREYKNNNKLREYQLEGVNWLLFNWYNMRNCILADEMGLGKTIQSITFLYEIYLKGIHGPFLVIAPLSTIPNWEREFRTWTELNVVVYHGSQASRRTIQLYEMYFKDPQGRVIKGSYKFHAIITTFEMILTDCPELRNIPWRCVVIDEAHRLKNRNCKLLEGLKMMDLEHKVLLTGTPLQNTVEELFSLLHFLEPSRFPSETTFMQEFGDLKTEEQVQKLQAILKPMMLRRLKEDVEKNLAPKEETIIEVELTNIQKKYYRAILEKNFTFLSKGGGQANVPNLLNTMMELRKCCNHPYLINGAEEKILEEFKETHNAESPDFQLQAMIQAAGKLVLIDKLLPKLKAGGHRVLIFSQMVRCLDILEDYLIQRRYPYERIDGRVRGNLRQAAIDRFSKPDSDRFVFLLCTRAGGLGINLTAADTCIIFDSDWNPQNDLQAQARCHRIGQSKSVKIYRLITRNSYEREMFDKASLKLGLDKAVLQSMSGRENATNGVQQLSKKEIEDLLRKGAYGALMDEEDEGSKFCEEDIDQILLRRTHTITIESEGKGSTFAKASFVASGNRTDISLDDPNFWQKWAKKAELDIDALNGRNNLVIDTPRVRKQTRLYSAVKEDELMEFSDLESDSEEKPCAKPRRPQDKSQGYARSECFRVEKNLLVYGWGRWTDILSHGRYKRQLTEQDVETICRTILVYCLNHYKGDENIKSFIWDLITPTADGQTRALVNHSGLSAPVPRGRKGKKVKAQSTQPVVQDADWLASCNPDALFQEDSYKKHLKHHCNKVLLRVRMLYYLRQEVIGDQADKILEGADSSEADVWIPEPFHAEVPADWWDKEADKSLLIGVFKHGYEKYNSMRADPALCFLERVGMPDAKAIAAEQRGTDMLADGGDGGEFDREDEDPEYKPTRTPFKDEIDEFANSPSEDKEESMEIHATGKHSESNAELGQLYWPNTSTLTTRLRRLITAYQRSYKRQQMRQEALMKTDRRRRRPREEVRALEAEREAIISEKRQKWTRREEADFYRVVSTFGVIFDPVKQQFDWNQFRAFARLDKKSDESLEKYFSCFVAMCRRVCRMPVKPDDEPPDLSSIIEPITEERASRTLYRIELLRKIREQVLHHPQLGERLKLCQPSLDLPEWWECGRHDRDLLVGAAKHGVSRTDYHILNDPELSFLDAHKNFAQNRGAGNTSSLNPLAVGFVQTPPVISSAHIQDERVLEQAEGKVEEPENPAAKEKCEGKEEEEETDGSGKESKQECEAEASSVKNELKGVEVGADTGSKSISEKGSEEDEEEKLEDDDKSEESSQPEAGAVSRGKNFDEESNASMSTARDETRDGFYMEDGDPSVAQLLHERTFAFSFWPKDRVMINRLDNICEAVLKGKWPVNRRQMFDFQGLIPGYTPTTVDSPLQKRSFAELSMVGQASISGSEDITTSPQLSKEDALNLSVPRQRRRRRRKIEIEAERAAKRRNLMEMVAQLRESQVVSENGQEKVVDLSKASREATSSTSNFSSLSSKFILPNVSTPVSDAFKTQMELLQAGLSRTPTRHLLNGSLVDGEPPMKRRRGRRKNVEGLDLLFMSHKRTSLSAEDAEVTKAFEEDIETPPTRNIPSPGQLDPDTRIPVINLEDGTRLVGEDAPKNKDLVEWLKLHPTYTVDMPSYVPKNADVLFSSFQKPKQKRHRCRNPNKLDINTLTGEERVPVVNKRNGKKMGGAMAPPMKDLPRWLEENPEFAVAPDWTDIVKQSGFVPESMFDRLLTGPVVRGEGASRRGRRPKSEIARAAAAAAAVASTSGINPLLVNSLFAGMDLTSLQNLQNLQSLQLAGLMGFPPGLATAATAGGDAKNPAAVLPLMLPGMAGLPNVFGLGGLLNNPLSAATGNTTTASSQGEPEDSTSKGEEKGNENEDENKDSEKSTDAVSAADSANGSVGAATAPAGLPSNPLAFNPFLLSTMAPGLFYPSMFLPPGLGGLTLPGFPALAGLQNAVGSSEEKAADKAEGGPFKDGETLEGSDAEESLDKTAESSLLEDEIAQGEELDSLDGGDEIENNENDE
# These are yes or no findings as the source states them, for the method shown. Binding seen in cells or lysates may run through a third protein. These calls come from enrichment with a bait or labelling near it, and not all partners need be listed. No binding means not detected with the bait.
# Target: FLAG-V5-tagged U2-B” (FV5-U2-B”) (UniProt P08579)
# Assay: affinity purification with mass spectrometry; in vitro splicing reaction of NEB” nuclear extract with AdML pre-mRNA and ATPγS, Sephacryl-S500 gel filtration, pooled spliceosome fractions on anti-FLAG M2 Affinity Gel, mass spectrometry; two independent experiments
row,Substance,binding
1,SETD1A (from UniProt O15047 1-1707),binds
2,SMARCC2 (from UniProt Q8TAQ2 1-1214),binds
3,DOT1L (from UniProt Q8TEK3 1-1537),binds
4,HERC2 (from UniProt O95714 1-4834),binds
5,DICER1 (from UniProt Q9UPY3 1-1922),binds
6,SMARCE1 (from UniProt Q969G3 1-411),binds
7,DMAP1 (from UniProt Q9NPF5 1-467),binds
8,EHMT1 (from UniProt Q9H9B1-4),binds
9,TRIM28 (from UniProt Q13263 1-835),binds
10,KAT6B (from UniProt Q8WYB5-3),binds
11,HAT1 (from UniProt O14929 1-419),no binding
12,TNKS1BP1 (from UniProt Q9C0C2 1-1729),binds
13,RBBP4 (from UniProt Q09028 1-425),binds
14,NASP (from UniProt P49321 1-788),binds
15,BRD7 (from UniProt Q9NPI1 1-651),binds
16,HDAC2 (from UniProt Q92769 1-488),binds
17,WBP7 (from UniProt Q9UMN6 1-2715),binds
18,BRD8 (from UniProt Q9H0E9-4),binds
19,PBRM1 (from UniProt Q86U86 1-1689),binds
20,CHD5 (from UniProt Q8TDI0 1-1954),binds
21,BRD1 (from UniProt O95696 1-1058),binds

# Results, then the substance that gave them:
row,binding,Substance
1,binds,C6ORF130 (from UniProt Q9Y530 1-152)
2,binds,EHMT2 (from UniProt Q96KQ7 1-1210)
3,binds,SHPRH (from UniProt Q149N8 1-1683)
4,binds,PARP4 (from UniProt Q9UKK3 1-1724)
5,binds,EIF2C1 (from UniProt Q9UL18 1-857)
6,binds,TAF1 (from UniProt P21675 1-1893)
7,binds,CBX2 (from UniProt Q14781 1-532)
8,binds,PRMT5 (from UniProt O14744 1-637)
9,binds,SMARCA5 (from UniProt O60264 1-1052)
10,binds,EIF2C2 (from UniProt Q9UKV8 1-859)
11,binds,MORF4L1 (from UniProt Q9UBU8 1-362)
12,binds,BRCA2 (from UniProt P51587 1-3418)
13,binds,POLE3 (from UniProt Q9NRF9 1-147)
14,binds,HP1BP3 (from UniProt Q5SSJ5 1-553)
15,binds,SMARCD2 (from UniProt Q92925 1-531)
16,binds,SMARCB1 (from UniProt Q12824 1-385)
17,binds,ACTL6A (from UniProt O96019 1-429)
18,binds,CBX3 (from UniProt Q13185 1-183)
19,binds,SMARCA1 (from UniProt P28370 1-1042)
20,binds,HDAC1 (from UniProt Q13547 1-482)
21,binds,SMARCD1 (from UniProt Q96GM5 1-515)
22,binds,NCOR1 (from UniProt O75376 1-2440)
23,binds,H2AFY2 (from UniProt Q9P0M6 1-372)
24,binds,CHD7 (from UniProt Q9P2D1 1-2997)
25,no binding,TAF5 (from UniProt Q15542 1-800)
